Here are results for one molecule from patent US20230310372A1 (Amarin Pharmaceuticals Ireland Limited, priority 2013, published 2023).

Entries after “also recorded” stand apart in the source; their conditions may differ.

This series is described as follows: Phase 1, open-label, crossover drug-drug interaction study: steady-state plasma pharmacokinetics of atorvastatin and its two active metabolites with or without ethyl eicosapentaenoate. As to conditions: for AUC(0-t) / Cmax: human, plasma. The source says: Data for Cmax and AUC0-24 are reported as means (SD); data for Tmax are reported as median values.

As usually defined, the AUC(0-t) is exposure summed from dosing to a finite time, without extrapolation to infinity. As usually defined, the Cmax is the maximum level reached in the sampled fluid or tissue. Regarding `CC(C)c1c(C(=O)Nc2ccccc2)c(-c2ccccc2)c(-c2ccc(F)cc2)n1CC[C@@H](O)C[C@@H](O)CC(=O)O` [Atorvastatin, atorvastatin, reference compound], for the setting “atorvastatin 80 mg alone versus with 4 g ethyl eicosapentaenoate”, the “Effect of co-administration of ethyl eicosapentaenoate on Tmax” value was “no significant difference; also recorded: did not significantly affect”. The AUC(0-t) reads like this: (oral, 80 mg, AUC0-24, LSGM (least squares geometric mean), A = atorvastatin (80 mg) administered alone) 170 ng·h/mL; (oral, 80 mg, AUC0-24, mean, 80 mg atorvastatin alone) 180 ng·h/mL; (oral, AUC0-24, LSGM (least squares geometric mean), A + EPA = atorvastatin (80 mg) co-administered with ethyl eicosapentaenoate (4 g)) 169 ng·h/mL; (oral, AUC0-24, mean, 80 mg atorvastatin co-administered with 4 g ethyl eicosapentaenoate) 184 ng·h/mL; (po, 80 mg per day, AUC0-24 (geometric mean), healthy subjects, steady state, oral atorvastatin 80 mg per day alone (Day 7)) 170 ng·h/mL; (po, AUC0-24 (geometric mean), healthy subjects, steady state, oral atorvastatin 80 mg per day with about 4 g ethyl eicosapentaenoate (Day 35)) 169 ng·h/mL. Moreover, the highest concentration (Cmax) is 49.4 ng/mL (oral, 80 mg, Cmax, LSGM (least squares geometric mean), A = atorvastatin (80 mg) administered alone); 52.7 ng/mL (oral, 80 mg, Cmax, mean, 80 mg atorvastatin alone); 53.2 ng/mL (oral, Cmax, LSGM (least squares geometric mean), A + EPA = atorvastatin (80 mg) co-administered with ethyl eicosapentaenoate (4 g)); 57.1 ng/mL (oral, Cmax, mean, 80 mg atorvastatin co-administered with 4 g ethyl eicosapentaenoate); 49.4 ng/mL (po, 80 mg per day, Cmax (geometric mean), healthy subjects, steady state, oral atorvastatin 80 mg per day alone (Day 7)); 53.2 ng/mL (po, Cmax (geometric mean), healthy subjects, steady state, oral atorvastatin 80 mg per day with about 4 g ethyl eicosapentaenoate (Day 35)).
